Results published in the supplement of paper PMC4604168 (melanoma cell lines).
The other results are listed elsewhere or left out. Many values rest on one well or one pass, so single values are uncertain.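 Imaging used 1,536-well plates; nuclei positive for cleaved PARP by antibody were divided by total DNA-stained nuclei to yield the apoptosis fraction. Doses for screening kept most cells viable, and cell lines differ markedly in resting and induced cleaved-PARP levels.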

What was measured:
Experiment in all cases: cleaved PARP positive nuclei fraction relative to DMSO control; melanoma cells; higher = more apoptosis
Details in all cases: library dose: low library concentration; 72 h
501Mel = system: 501Mel
A101D = system: A101D
A2058 = system: A2058
A375 = system: A375
C32 = system: C32
CBRC008 = system: CBRC008 (line from a melanoma biopsy)
CBRC014 = system: CBRC014 (line from a melanoma biopsy)
CBRC016 = system: CBRC016 (line from a melanoma biopsy)
CBRC017 = system: CBRC017 (line from a melanoma biopsy)
CBRC034 = system: CBRC034 (line from a melanoma biopsy)
COLO792 = system: COLO792
COLO800 = system: COLO800
COLO829 = system: COLO829
G361 = system: G361
IPC-298 = system: IPC-298
IST-MEL1 = system: IST-MEL1
LB2518-MEL = system: LB2518-MEL
LOXIMVI = system: LOXIMVI
MEL-HO = system: MEL-HO

Row | Structure (SMILES) | cleaved PARP positive nuclei fraction (501Mel) [%] | cleaved PARP positive nuclei fraction (A101D) [%] | cleaved PARP positive nuclei fraction (A2058) [%] | cleaved PARP positive nuclei fraction (A375) [%] | cleaved PARP positive nuclei fraction (C32) [%] | cleaved PARP positive nuclei fraction (CBRC008) [%] | cleaved PARP positive nuclei fraction (CBRC014) [%] | cleaved PARP positive nuclei fraction (CBRC016) [%] | cleaved PARP positive nuclei fraction (CBRC017) [%] | cleaved PARP positive nuclei fraction (CBRC034) [%] | cleaved PARP positive nuclei fraction (COLO792) [%] | cleaved PARP positive nuclei fraction (COLO800) [%] | cleaved PARP positive nuclei fraction (COLO829) [%] | cleaved PARP positive nuclei fraction (G361) [%] | cleaved PARP positive nuclei fraction (IPC-298) [%] | cleaved PARP positive nuclei fraction (IST-MEL1) [%] | cleaved PARP positive nuclei fraction (LB2518-MEL) [%] | cleaved PARP positive nuclei fraction (LOXIMVI) [%] | cleaved PARP positive nuclei fraction (MEL-HO) [%]
1 | CCCCCCCCCCCCCCCCCCOP(=O)([O-])OC1CC[N+](C)(C)CC1 [Perifosine] + CCN(CC)CCNC(=O)c1c(C)[nH]c(/C=C2\C(=O)Nc3ccc(F)cc32)c1C [sunitinib] (first compound 0.4 µM, partner dose 0.4 µM) | 369 | 51.1 | 61.2 | 94.4 | 80.6 | 48.3 | 106 | 72.1 | 138 | 115 | 109 | 126 | 111 | 43.5 | 43.6 | 86.3 | 191 | 81.1 | 105
2 | O=C(Nc1cc(C(F)(F)F)cc(C(F)(F)F)c1)c1cc(Cl)ccc1O + CCN(CC)CCNC(=O)c1c(C)[nH]c(/C=C2\C(=O)Nc3ccc(F)cc32)c1C [sunitinib] (first compound 0.016 µM, partner dose 0.4 µM) | 130 | 175 | 136 | 110 | 80 | 75.2 | 96.4 | 307 | 110 | 56.8 | 114 | 199 | 75 | 116 | 43.4 | 30.4 | 158 | 134 | 56.1
3 | Cc1ccc(Nc2nccc(N(C)c3ccc4c(C)n(C)nc4c3)n2)cc1S(N)(=O)=O [Pazopanib] + C#Cc1cccc(Nc2ncnc3cc(OCCOC)c(OCCOC)cc23)c1 [erlotinib] (first compound 0.4 µM, partner dose 0.8 µM) | 70.1 | 50.5 | 125 | 96 | 72.9 | 312 | 107 | 204 | 113 | 37.2 | 138 | 99.3 | 69.2 | 162 | 115 | 138 | 66.4 | 55.1 | 204
4 | Cc1cn(-c2cc(NC(=O)c3ccc(C)c(Nc4nccc(-c5cccnc5)n4)c3)cc(C(F)(F)F)c2)cn1 [nilotinib] + Cn1c(Nc2ccc(C(F)(F)F)cc2)nc2cc(Oc3ccnc(-c4ncc(C(F)(F)F)[nH]4)c3)ccc21 [CHIR265] (first compound 0.2 µM, partner dose 0.08 µM) | 118 | 211 | 109 | 168 | 74 | 44.8 | 106 | 109 | 101 | 75.1 | 116 | 92.6 | 95.1 | 163 | 186 | 98 | 327 | 252 | 30.6
5 | Cc1cn(-c2cc(NC(=O)c3ccc(C)c(Nc4nccc(-c5cccnc5)n4)c3)cc(C(F)(F)F)c2)cn1 [nilotinib] + Nc1ncn([C@H]2C[C@H](O)[C@@H](CO)O2)c(=O)n1 [decitabine] (first compound 0.2 µM, partner dose 0.1 µM) | 94 | 105 | 153 | 138 | 156 | 35.5 | 99.7 | 75.8 | 119 | 62.6 | 83.5 | 112 | 151 | 71.1 | 51.8 | 157 | 120 | 136 | 130
6 | O=C(/C=C/c1cccnc1)NCCCCC1CCN(C(=O)c2ccccc2)CC1 + C[C@]1(O)C[C@@H](c2nc(-c3ccc4ccc(-c5ccccc5)nc4c3)c3c(N)nccn32)C1 [OSI906] (first compound 0.01 µM, partner dose 0.4 µM) | 207 | 86.3 | 102 | 690 | 79.4 | 938 | 133 | 938 | 456 | 520 | 280 | 215 | 222 | 2340 | 403 | 89.8 | 251 | 151 | 415
7 | O=C(Nc1cc(C(F)(F)F)cc(C(F)(F)F)c1)c1cc(Cl)ccc1O + Cc1cc(Nc2cc(N3CCN(C)CC3)nc(/C=C/c3ccccc3)n2)n[nH]1 [ENMD2076] (first compound 0.016 µM, partner dose 0.04 µM) | 49.7 | 104 | 140 | 152 | 77.2 | 44.8 | 96 | 256 | 84.2 | 104 | 94.8 | 101 | 150 | 60.6 | 28.2 | 72.2 | 145 | 65.3 | 22.1
8 | Cc1ccc(Nc2nccc(N(C)c3ccc4c(C)n(C)nc4c3)n2)cc1S(N)(=O)=O [Pazopanib] + COc1ccc(Cl)c(Nc2nc3ccccc3nc2NS(=O)(=O)c2cccc(NC(=O)C(C)(C)N)c2)c1 [XL147] (first compound 0.4 µM, partner dose 0.8 µM) | 83.9 | 51.3 | 192 | 181 | 75.6 | 256 | 135 | 124 | 125 | 86 | 94 | 80.8 | 67.8 | 101 | 207 | 32.2 | 53.2 | 158 | 73.5
9 | Cc1cn(-c2cc(NC(=O)c3ccc(C)c(Nc4nccc(-c5cccnc5)n4)c3)cc(C(F)(F)F)c2)cn1 [nilotinib] + Cn1c(=O)n(-c2ccc(C(C)(C)C#N)cc2)c2c3cc(-c4cnc5ccccc5c4)ccc3ncc21 [NVP-BEZ235] (first compound 0.2 µM, partner dose 0.004 µM) | 152 | 97.6 | 201 | 168 | 82.1 | 41.4 | 86.8 | 79.9 | 96.2 | 55.9 | 136 | 132 | 72.8 | 53.8 | 173 | 65.6 | 111 | 105 | 76.6
10 | Cc1cn(-c2cc(NC(=O)c3ccc(C)c(Nc4nccc(-c5cccnc5)n4)c3)cc(C(F)(F)F)c2)cn1 [nilotinib] + CN(c1ncccc1CNc1nc(Nc2ccc3c(c2)CC(=O)N3)ncc1C(F)(F)F)S(C)(=O)=O [PF562271] (first compound 0.2 µM, partner dose 0.08 µM) | 86.2 | 139 | 133 | 80.2 | 82.5 | 31.2 | 130 | 89.4 | 88.2 | 76.5 | 46.6 | 166 | 56 | 86.4 | 41.4 | 130 | 123 | 43.5 | 59.6
11 | Cc1cn(-c2cc(NC(=O)c3ccc(C)c(Nc4nccc(-c5cccnc5)n4)c3)cc(C(F)(F)F)c2)cn1 [nilotinib] + CC(=O)O[C@@]12CO[C@@H]1C[C@H](O)[C@@]1(C)C(=O)[C@H](O)C3=C(C)[C@@H](OC(=O)[C@H](O)[C@@H](NC(=O)OC(C)(C)C)c4ccccc4)C[C@@](O)([C@@H](OC(=O)c4ccccc4)[C@H]21)C3(C)C [Docetaxel] (first compound 0.2 µM, partner dose 0.0001 µM) | 156 | 92.5 | 1150 | 3440 | 87.8 | 818 | 123 | 322 | 189 | 53.8 | 260 | 321 | 215 | 464 | 182 | 70.9 | 117 | 105 | 287
12 | COc1cc([C@@H]2c3cc4c(cc3[C@@H](O[C@@H]3O[C@@H]5CO[C@@H](C)O[C@H]5[C@H](O)[C@H]3O)[C@H]3COC(=O)[C@H]23)OCO4)cc(OC)c1O [etoposide] + C#Cc1cccc(Nc2ncnc3cc(OCCOC)c(OCCOC)cc23)c1 [erlotinib] (first compound 0.02 µM, partner dose 0.8 µM) | 136 | 59.8 | 38.3 | 63.8 | 71.1 | 105 | 111 | 31 | 134 | 31.6 | 136 | 120 | 77.5 | 48.2 | 50.8 | 61.9 | 126 | 46.4 | 49.3
13 | Cc1cn(-c2cc(NC(=O)c3ccc(C)c(Nc4nccc(-c5cccnc5)n4)c3)cc(C(F)(F)F)c2)cn1 [nilotinib] + CS(=O)(=O)c1ccc(C(=O)Nc2ccc(Cl)c(-c3ccccn3)c2)c(Cl)c1 [vismodegib] (first compound 0.2 µM, partner dose 1 µM) | 102 | 139 | 151 | 98.1 | 237 | 71.3 | 159 | 175 | 81.5 | 23.1 | 171 | 209 | 65 | 40.9 | 88.8 | 40.4 | 148 | 294 | 35.2
14 | O=C(/C=C/c1cccnc1)NCCCCC1CCN(C(=O)c2ccccc2)CC1 + Cc1cn(-c2cc(NC(=O)c3ccc(C)c(Nc4nccc(-c5cccnc5)n4)c3)cc(C(F)(F)F)c2)cn1 [nilotinib] (first compound 0.01 µM, partner dose 0.2 µM) | 101 | 64.1 | 193 | 119 | 84.3 | 6100 | 116 | 705 | 2080 | 2230 | 409 | 181 | 234 | 7370 | 376 | 193 | 275 | 212 | 150
15 | Cc1ccc(Nc2nccc(N(C)c3ccc4c(C)n(C)nc4c3)n2)cc1S(N)(=O)=O [Pazopanib] + CO[C@H]1C[C@@H]2CC[C@@H](C)[C@@](O)(O2)C(=O)C(=O)N2CCCC[C@H]2C(=O)O[C@H]([C@H](C)C[C@@H]2CC[C@@H](OCCO)[C@H](OC)C2)CC(=O)[C@H](C)/C=C(\C)[C@@H](O)[C@@H](OC)C(=O)[C@H](C)C[C@H](C)/C=C/C=C/C=C/1C [everolimus] (first compound 0.4 µM, partner dose 0.02 µM) | 281 | 33.7 | 47.7 | 868 | 75.4 | 191 | 102 | 214 | 93.5 | 36.5 | 184 | 63.1 | 88.9 | 230 | 230 | 75.8 | 138 | 357 | 182
16 | O=C(/C=C/c1cccnc1)NCCCCC1CCN(C(=O)c2ccccc2)CC1 + NC(=O)c1ccc(N(C(N)=O)c2c(F)cccc2F)nc1-c1ccc(F)cc1F [VX702] (first compound 0.01 µM, partner dose 0.4 µM) | 116 | 244 | 116 | 85.4 | 200 | 3070 | 129 | 348 | 505 | 1510 | 207 | 260 | 139 | 2890 | 280 | 180 | 42.4 | 64.3 | 176

Full records, quoted from the list. Order of values: cleaved PARP positive nuclei fraction (501Mel) [%] | cleaved PARP positive nuclei fraction (A101D) [%] | cleaved PARP positive nuclei fraction (A2058) [%] | cleaved PARP positive nuclei fraction (A375) [%] | cleaved PARP positive nuclei fraction (C32) [%] | cleaved PARP positive nuclei fraction (CBRC008) [%] | cleaved PARP positive nuclei fraction (CBRC014) [%] | cleaved PARP positive nuclei fraction (CBRC016) [%] | cleaved PARP positive nuclei fraction (CBRC017) [%] | cleaved PARP positive nuclei fraction (CBRC034) [%] | cleaved PARP positive nuclei fraction (COLO792) [%] | cleaved PARP positive nuclei fraction (COLO800) [%] | cleaved PARP positive nuclei fraction (COLO829) [%] | cleaved PARP positive nuclei fraction (G361) [%] | cleaved PARP positive nuclei fraction (IPC-298) [%] | cleaved PARP positive nuclei fraction (IST-MEL1) [%] | cleaved PARP positive nuclei fraction (LB2518-MEL) [%] | cleaved PARP positive nuclei fraction (LOXIMVI) [%] | cleaved PARP positive nuclei fraction (MEL-HO) [%]
O=C(/C=C/c1cccnc1)NCCCCC1CCN(C(=O)c2ccccc2)CC1 + NC(=O)c1ccc(N(C(N)=O)c2c(F)cccc2F)nc1-c1ccc(F)cc1F [VX702] (first compound 0.01 µM, partner dose 0.4 µM) in the list: 116 | 244 | 116 | 85.4 | 200 | 3070 | 129 | 348 | 505 | 1510 | 207 | 260 | 139 | 2890 | 280 | 180 | 42.4 | 64.3 | 176
Cc1cn(-c2cc(NC(=O)c3ccc(C)c(Nc4nccc(-c5cccnc5)n4)c3)cc(C(F)(F)F)c2)cn1 [nilotinib] + CN(c1ncccc1CNc1nc(Nc2ccc3c(c2)CC(=O)N3)ncc1C(F)(F)F)S(C)(=O)=O [PF562271] (first compound 0.2 µM, partner dose 0.08 µM) in the list: 86.2 | 139 | 133 | 80.2 | 82.5 | 31.2 | 130 | 89.4 | 88.2 | 76.5 | 46.6 | 166 | 56 | 86.4 | 41.4 | 130 | 123 | 43.5 | 59.6
